Earlier results, collected in patent publication US7041634B2, “Method of inhibiting immune system destruction of transplanted viable cells” (Emory University, priority 1995, dated 2006).
At least one structure is not confirmed: it was looked up by name or label, or the drawing left a doubt.

Tested on: islet grafts in NOD recipients
Conditions: prolonged from 5 days

C=CC[C@@H]1/C=C(\C)C[C@H](C)C[C@H](OC)[C@H]2O[C@@](O)(C(=O)C(=O)N3CCCC[C@H]3C(=O)O[C@H](/C(C)=C/[C@@H]3CC[C@@H](O)[C@H](OC)C3)[C@H](C)[C@@H](O)CC1=O)[C@H](C)C[C@@H]2OC [FK506]
islet graft function: 25 days
